# Legend:
# Amino acid sequences for entries named in this document (tags omitted). A change or cut given only in a name is not applied to a line headed by its entry. Residues count along the entry.
# UniProt Q8IVH8: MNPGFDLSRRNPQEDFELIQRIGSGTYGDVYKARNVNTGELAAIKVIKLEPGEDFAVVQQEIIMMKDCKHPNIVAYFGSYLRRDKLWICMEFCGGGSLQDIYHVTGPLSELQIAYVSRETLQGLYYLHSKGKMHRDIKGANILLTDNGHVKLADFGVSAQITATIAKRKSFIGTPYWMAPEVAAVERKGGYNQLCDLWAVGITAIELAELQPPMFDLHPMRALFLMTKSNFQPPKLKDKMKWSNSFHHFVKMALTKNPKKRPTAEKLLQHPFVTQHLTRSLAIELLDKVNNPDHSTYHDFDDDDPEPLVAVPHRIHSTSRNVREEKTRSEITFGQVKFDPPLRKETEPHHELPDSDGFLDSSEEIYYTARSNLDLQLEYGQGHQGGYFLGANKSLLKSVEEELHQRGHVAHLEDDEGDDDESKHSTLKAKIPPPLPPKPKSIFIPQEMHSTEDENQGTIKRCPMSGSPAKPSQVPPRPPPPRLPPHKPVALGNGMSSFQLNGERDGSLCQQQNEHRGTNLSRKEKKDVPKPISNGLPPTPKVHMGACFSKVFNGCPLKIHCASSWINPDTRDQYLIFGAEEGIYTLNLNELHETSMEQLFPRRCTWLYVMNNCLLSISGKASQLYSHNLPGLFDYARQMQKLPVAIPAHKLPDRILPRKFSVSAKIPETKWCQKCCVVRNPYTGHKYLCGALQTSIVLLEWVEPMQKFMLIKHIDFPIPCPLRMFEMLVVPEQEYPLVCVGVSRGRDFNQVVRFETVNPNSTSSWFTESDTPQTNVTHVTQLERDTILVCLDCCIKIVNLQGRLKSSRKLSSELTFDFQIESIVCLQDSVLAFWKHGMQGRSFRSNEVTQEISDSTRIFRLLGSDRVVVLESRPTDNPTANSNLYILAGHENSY
# UniProt Q00536: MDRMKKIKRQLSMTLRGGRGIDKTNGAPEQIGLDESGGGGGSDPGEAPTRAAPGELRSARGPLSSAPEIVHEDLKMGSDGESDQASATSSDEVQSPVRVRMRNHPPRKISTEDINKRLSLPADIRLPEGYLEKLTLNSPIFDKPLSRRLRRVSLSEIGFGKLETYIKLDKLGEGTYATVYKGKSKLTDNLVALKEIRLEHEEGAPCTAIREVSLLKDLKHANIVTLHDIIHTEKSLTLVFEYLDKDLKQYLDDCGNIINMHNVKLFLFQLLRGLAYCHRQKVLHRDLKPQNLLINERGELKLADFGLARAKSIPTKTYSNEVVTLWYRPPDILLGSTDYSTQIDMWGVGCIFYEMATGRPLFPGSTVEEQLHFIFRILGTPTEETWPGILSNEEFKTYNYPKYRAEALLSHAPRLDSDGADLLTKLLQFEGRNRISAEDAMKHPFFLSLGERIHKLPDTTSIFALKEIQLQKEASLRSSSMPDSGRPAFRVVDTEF
# UniProt Q00535, whole entry: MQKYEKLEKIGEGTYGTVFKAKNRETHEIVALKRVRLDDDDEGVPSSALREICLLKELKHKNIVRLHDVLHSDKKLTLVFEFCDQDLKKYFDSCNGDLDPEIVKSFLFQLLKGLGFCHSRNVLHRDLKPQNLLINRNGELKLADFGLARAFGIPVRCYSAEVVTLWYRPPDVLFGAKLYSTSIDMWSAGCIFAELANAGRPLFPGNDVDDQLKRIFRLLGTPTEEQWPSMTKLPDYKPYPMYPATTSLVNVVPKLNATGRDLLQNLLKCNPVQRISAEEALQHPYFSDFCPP
# UniProt O60285: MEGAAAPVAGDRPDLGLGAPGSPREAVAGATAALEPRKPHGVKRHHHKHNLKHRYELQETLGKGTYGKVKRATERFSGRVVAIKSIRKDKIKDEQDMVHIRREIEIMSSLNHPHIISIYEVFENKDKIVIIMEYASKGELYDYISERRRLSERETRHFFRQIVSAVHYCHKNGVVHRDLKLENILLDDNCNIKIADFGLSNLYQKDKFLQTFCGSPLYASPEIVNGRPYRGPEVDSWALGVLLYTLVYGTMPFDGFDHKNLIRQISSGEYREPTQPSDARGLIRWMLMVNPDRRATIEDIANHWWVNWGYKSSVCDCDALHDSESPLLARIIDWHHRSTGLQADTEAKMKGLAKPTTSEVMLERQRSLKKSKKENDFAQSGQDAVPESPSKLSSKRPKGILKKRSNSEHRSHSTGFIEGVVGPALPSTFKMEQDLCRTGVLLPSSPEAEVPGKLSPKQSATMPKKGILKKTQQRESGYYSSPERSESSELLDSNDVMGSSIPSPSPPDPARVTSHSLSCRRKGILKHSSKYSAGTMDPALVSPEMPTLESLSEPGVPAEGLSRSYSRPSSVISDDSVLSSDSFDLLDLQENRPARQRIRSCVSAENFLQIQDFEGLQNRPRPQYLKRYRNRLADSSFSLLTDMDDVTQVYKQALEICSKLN
# UniProt Q16584: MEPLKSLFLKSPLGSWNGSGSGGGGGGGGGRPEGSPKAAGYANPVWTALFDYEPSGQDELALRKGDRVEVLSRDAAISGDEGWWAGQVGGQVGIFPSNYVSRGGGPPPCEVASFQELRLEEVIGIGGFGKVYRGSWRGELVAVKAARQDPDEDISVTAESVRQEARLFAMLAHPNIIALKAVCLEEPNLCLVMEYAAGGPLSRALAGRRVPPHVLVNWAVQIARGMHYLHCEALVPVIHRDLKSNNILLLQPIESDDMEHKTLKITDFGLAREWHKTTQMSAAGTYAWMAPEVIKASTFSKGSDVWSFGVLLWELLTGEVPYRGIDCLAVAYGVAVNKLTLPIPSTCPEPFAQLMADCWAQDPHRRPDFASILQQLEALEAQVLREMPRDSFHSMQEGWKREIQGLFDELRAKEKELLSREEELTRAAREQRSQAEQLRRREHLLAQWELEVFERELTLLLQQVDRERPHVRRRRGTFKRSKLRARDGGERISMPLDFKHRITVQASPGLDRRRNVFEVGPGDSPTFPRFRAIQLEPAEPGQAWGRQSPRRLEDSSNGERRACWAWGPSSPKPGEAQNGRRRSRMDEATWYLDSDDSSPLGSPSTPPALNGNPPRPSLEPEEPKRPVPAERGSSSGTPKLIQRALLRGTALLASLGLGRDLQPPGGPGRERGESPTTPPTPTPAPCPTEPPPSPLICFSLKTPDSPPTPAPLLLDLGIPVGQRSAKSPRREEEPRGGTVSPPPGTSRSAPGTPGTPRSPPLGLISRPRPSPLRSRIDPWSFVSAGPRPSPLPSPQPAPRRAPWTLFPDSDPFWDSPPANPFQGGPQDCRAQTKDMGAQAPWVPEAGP
# UniProt P21709, 26-976: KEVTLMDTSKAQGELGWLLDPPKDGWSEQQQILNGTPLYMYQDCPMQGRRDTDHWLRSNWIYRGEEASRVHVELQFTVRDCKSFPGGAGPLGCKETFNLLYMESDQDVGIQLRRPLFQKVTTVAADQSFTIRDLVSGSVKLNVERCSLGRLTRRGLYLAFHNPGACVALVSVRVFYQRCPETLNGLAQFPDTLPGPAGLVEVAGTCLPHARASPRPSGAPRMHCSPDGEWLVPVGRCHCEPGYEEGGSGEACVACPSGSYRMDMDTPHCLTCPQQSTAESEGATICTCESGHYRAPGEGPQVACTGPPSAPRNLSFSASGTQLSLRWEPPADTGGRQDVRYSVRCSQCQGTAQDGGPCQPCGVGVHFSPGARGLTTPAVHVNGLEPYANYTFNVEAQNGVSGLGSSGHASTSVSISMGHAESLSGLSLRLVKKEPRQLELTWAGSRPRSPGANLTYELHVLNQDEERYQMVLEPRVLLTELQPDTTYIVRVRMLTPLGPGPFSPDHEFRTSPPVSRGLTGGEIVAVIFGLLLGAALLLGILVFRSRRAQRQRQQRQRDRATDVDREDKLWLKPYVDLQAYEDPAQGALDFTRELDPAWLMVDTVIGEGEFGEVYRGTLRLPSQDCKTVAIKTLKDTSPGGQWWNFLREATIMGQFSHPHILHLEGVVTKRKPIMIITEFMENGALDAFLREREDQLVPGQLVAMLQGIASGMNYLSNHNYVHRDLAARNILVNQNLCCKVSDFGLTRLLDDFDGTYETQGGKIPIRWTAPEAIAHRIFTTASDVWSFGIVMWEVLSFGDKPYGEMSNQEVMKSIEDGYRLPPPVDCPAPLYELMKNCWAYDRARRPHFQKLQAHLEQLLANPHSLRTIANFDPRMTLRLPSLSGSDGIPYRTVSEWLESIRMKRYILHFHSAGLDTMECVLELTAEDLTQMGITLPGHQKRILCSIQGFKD
# UniProt Q9HCP0: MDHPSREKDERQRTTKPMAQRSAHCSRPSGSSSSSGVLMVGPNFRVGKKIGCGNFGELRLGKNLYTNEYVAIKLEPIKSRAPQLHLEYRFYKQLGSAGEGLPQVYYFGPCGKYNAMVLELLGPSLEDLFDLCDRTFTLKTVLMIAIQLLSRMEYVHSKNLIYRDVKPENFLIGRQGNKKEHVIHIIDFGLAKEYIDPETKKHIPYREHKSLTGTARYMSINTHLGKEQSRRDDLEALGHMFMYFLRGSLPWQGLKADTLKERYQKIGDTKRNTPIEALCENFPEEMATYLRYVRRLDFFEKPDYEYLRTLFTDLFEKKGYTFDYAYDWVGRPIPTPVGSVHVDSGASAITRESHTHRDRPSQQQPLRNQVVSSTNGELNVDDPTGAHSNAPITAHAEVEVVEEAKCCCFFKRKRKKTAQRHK
# UniProt P06493, whole entry: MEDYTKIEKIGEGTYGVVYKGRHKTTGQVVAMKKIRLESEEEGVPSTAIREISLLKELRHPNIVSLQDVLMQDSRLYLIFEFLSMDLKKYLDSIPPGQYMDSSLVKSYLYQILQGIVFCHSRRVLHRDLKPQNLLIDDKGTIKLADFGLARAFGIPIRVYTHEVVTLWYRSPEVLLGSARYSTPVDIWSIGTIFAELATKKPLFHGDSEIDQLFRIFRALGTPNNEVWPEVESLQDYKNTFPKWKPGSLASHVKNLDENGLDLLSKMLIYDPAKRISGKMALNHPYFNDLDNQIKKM
# UniProt O43353, whole entry: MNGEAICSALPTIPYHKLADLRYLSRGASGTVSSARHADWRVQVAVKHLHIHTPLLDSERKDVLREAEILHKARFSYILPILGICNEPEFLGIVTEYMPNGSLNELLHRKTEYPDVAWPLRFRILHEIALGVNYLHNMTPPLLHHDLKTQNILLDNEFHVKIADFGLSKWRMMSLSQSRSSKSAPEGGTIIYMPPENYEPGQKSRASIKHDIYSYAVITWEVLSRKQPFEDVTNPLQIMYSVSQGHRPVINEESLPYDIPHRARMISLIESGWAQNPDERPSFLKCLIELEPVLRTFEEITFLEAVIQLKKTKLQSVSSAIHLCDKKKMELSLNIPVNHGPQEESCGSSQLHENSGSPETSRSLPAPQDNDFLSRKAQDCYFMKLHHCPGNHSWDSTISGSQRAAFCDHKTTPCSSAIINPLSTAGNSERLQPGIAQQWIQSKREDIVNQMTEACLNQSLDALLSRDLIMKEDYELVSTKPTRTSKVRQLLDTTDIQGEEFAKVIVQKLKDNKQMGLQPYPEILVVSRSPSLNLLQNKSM
# UniProt Q96PN8: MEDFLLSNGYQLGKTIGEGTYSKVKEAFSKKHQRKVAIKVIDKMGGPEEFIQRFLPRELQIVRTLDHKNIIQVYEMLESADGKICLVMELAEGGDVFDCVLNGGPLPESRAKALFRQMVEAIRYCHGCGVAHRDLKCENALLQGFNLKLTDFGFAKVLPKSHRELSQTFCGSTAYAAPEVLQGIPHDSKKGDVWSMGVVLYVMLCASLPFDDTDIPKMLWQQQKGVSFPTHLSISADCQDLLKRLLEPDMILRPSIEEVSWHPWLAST
# UniProt O15111: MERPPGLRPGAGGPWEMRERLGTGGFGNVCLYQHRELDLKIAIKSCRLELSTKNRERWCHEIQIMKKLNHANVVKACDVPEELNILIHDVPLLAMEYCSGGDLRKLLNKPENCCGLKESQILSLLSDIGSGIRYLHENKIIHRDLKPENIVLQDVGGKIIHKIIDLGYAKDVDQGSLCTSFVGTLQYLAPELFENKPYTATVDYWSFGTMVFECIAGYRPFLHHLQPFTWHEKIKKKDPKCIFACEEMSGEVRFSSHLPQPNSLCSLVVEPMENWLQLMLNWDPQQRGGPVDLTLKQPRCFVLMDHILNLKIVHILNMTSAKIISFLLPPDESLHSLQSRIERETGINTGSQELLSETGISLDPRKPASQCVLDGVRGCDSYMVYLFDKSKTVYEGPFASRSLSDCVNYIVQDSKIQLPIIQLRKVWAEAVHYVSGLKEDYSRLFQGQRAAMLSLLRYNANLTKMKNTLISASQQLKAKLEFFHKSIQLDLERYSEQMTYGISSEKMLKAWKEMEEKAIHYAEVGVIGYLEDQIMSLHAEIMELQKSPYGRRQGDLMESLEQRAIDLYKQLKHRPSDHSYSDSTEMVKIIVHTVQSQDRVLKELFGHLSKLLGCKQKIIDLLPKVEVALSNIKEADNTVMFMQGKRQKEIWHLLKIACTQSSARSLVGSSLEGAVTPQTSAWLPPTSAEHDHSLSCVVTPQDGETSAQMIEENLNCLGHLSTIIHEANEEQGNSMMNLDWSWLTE
# [1] = target: EPHA7 (Homo sapiens, UniProt Q15375); settings: 1 μM; Run 1, Run 2
# [2] = target: FES/FPS (Homo sapiens, UniProt P07332); assay: biochemical; settings: read-out: % enzyme activity, 1 μM; Run 1, Run 2
# [3] = target: GLK/MAP4K3 (Homo sapiens, UniProt Q8IVH8); assay: biochemical; settings: read-out: % enzyme activity, 1 μM; Run 1, Run 2
# [4] = target: CDK16/cyclin Y (PCTAIRE) (Homo sapiens, UniProt Q00536); assay: biochemical; settings: read-out: % enzyme activity, 1 μM; Run 1, Run 2
# [5] = target: MELK (Homo sapiens, UniProt Q14680); assay: biochemical; settings: read-out: % enzyme activity, 1 μM; Run 1, Run 2
# [6] = target: DCAMKL2 (Homo sapiens, UniProt Q8N568); assay: biochemical; settings: read-out: % enzyme activity, 1 μM; Run 1, Run 2
# [7] = target: PASK (Homo sapiens, UniProt Q96RG2); settings: 1 μM; Run 1, Run 2
# [8] = target: CDK5/P25 (Homo sapiens, UniProt Q00535); settings: 1 μM; Run 1, Run 2
# [9] = target: TESK1 (Homo sapiens, UniProt Q15569); settings: 1 μM; Run 1, Run 2
# [10] = target: CDC7/DBF4 (Homo sapiens, UniProt O00311); settings: 1 μM; Run 1, Run 2
# [11] = target: PDGFRb (Homo sapiens, UniProt P09619); assay: biochemical; settings: read-out: % enzyme activity, 1 μM; Run 1, Run 2
# [12] = target: ARK5/NUAK1 (Homo sapiens, UniProt O60285); settings: 1 μM; Run 1, Run 2
# [13] = target: EPHA5 (Homo sapiens, UniProt P54756); assay: biochemical; settings: read-out: % enzyme activity, 1 μM; Run 1, Run 2
# [14] = target: PKN2/PRK2 (Homo sapiens, UniProt Q16513); assay: biochemical; settings: read-out: % enzyme activity, 1 μM; Run 1, Run 2
# [15] = target: MLK3/MAP3K11 (Homo sapiens, UniProt Q16584); assay: biochemical; settings: read-out: % enzyme activity, 1 μM; Run 1, Run 2
# [16] = target: MARK4 (Homo sapiens, UniProt Q96L34); settings: 1 μM; Run 1, Run 2
# [17] = target: PKCepsilon (Homo sapiens, UniProt Q02156); settings: 1 μM; Run 1, Run 2
# [18] = target: TEC (Homo sapiens, UniProt P42680); settings: 1 μM; Run 1, Run 2
# [19] = target: SYK (Homo sapiens, UniProt P43405); assay: biochemical; settings: read-out: % enzyme activity, 1 μM; Run 1, Run 2
# [20] = target: c-Src (Homo sapiens, UniProt P12931); assay: biochemical; settings: read-out: % enzyme activity, 1 μM; Run 1, Run 2
# [21] = target: EPHA1 (Homo sapiens, UniProt P21709); settings: 1 μM; Run 1, Run 2
# [22] = target: GSK3b (Homo sapiens, UniProt P49841); assay: biochemical; settings: read-out: % enzyme activity, 1 μM; Run 1, Run 2
# [23] = target: HIPK1 (Homo sapiens, UniProt Q86Z02); assay: biochemical; settings: read-out: % enzyme activity, 1 μM; Run 1, Run 2
# [24] = target: PKCb1 (Homo sapiens, UniProt P05771); settings: 1 μM; Run 1, Run 2
# [25] = target: VRK2 (Homo sapiens, UniProt Q86Y07); assay: biochemical; settings: read-out: % enzyme activity, 1 μM; Run 1, Run 2
# [26] = target: KSR2 (Homo sapiens, UniProt Q6VAB6); settings: 1 μM; Run 1, Run 2
# [27] = target: MEK2 (Homo sapiens, UniProt P36507); assay: biochemical; settings: read-out: % enzyme activity, 1 μM; Run 1, Run 2
# [28] = target: CK1g1 (Homo sapiens, UniProt Q9HCP0); settings: 1 μM; Run 1, Run 2
# [29] = target: CDK1/cyclin A (Homo sapiens, UniProt P06493); settings: 1 μM; Run 1, Run 2
# [30] = target: CK2a2 (Homo sapiens, UniProt P19784); assay: biochemical; settings: read-out: % enzyme activity, 1 μM; Run 1, Run 2
# [31] = target: LOK/STK10 (Homo sapiens, UniProt O94804); assay: biochemical; settings: read-out: % enzyme activity, 1 μM; Run 1, Run 2
# [32] = target: RIPK2 (Homo sapiens, UniProt O43353); assay: biochemical; settings: read-out: % enzyme activity, 1 μM; Run 1, Run 2
# [33] = target: MRCKa/CDC42BPA (Homo sapiens, UniProt Q5VT25); assay: biochemical; settings: read-out: % enzyme activity, 1 μM; Run 1, Run 2
# [34] = target: KSR1 (Homo sapiens, UniProt Q8IVT5); settings: 1 μM; Run 1, Run 2
# [35] = target: YSK4/MAP3K19 (Homo sapiens, UniProt Q56UN5); settings: 1 μM; Run 1, Run 2
# [36] = target: RIPK5 (Homo sapiens, UniProt Q6XUX3); assay: biochemical; settings: read-out: % enzyme activity, 1 μM; Run 1, Run 2
# [37] = target: TSSK3/STK22C (Homo sapiens, UniProt Q96PN8); settings: 1 μM; Run 1, Run 2
# [38] = target: HCK (Homo sapiens, UniProt P08631); settings: 1 μM; Run 1, Run 2
# [39] = target: ERK7/MAPK15 (Homo sapiens, UniProt Q8TD08); assay: biochemical; settings: read-out: % enzyme activity, 1 μM; Run 1, Run 2
# [40] = target: IKKa/CHUK (Homo sapiens, UniProt O15111); settings: 1 μM; Run 1, Run 2
# [41] = target: PIM2 (Homo sapiens, UniProt Q9P1W9); settings: 1 μM; Run 1, Run 2
# [42] = target: PAK5 (Homo sapiens, UniProt Q9P286); assay: biochemical; settings: read-out: % enzyme activity, 1 μM; Run 1, Run 2
# [43] = target: CDK2/cyclin A (Homo sapiens, UniProt P24941); assay: biochemical; settings: read-out: % enzyme activity, 1 μM; Run 1, Run 2
compound,measurement,setting,value
"COc1cc(-c2cncc(-c3ccc(N4CCN(C(C)C)CC4)cc3)c2C)cc(F)c1C(N)=O [Compound 26b, 2-Fluoro-4-(5-(4-(4-isopropylpiperazin-1-yl)phenyl)-4-methylpyridin-3-yl)-6-methoxybenzamide]",% enzyme activity,[1],102.43%
same,remaining activity at 1 µM,[2],97%
same,remaining activity at 1 µM,[3],83.9%
same,remaining activity at 1 µM,[4],91.3%
same,remaining activity at 1 µM,[5],99.6%
same,remaining activity at 1 µM,[6],70.7%
same,% enzyme activity,[7],89.01%
same,% enzyme activity,[8],93.23%
same,% enzyme activity,[9],108.28%
same,% enzyme activity,[10],94.08%
same,remaining activity at 1 µM,[11],90.1%
same,% enzyme activity,[12],92.31%
same,remaining activity at 1 µM,[13],94.7%
same,remaining activity at 1 µM,[14],103%
same,remaining activity at 1 µM,[15],106%
same,% enzyme activity,[16],83.34%
same,% enzyme activity,[17],97.53%
same,% enzyme activity,[18],124.33%
same,remaining activity at 1 µM,[19],105%
same,remaining activity at 1 µM,[20],98.3%
same,% enzyme activity,[21],97.40%
same,remaining activity at 1 µM,[22],99.5%
same,remaining activity at 1 µM,[23],100%
same,% enzyme activity,[24],86.84%
same,remaining activity at 1 µM,[25],88%
same,% enzyme activity,[26],96.38%
same,remaining activity at 1 µM,[27],91.3%
same,% enzyme activity,[28],60.03%
same,% enzyme activity,[29],83.71%
same,remaining activity at 1 µM,[30],98.1%
same,remaining activity at 1 µM,[31],61.6%
same,remaining activity at 1 µM,[32],80.9%
same,remaining activity at 1 µM,[33],104%
same,% enzyme activity,[34],92.67%
same,% enzyme activity,[35],101.54%
same,remaining activity at 1 µM,[36],84.8%
same,% enzyme activity,[37],94.89%
same,% enzyme activity,[38],93.44%
same,remaining activity at 1 µM,[39],90.5%
same,% enzyme activity,[40],84.25%
same,% enzyme activity,[41],96.36%
same,remaining activity at 1 µM,[42],96.7%
same,remaining activity at 1 µM,[43],92.3%

# Reference: PMC8213057, “Targeting ALK2: An Open Science Approach to Developing Therapeutics for the Treatment of Diffuse Intrinsic Pontine Glioma” (Journal of Medicinal Chemistry, 2020)
